Data on 18 targets can be found in the supplement of paper PMC10849652.

By UniProt entry, the sequences of proteins in these tests, tags left out. Where a name states a change or a piece, a line headed by the entry shows the natural chain unless it says otherwise.
UniProt Q12887: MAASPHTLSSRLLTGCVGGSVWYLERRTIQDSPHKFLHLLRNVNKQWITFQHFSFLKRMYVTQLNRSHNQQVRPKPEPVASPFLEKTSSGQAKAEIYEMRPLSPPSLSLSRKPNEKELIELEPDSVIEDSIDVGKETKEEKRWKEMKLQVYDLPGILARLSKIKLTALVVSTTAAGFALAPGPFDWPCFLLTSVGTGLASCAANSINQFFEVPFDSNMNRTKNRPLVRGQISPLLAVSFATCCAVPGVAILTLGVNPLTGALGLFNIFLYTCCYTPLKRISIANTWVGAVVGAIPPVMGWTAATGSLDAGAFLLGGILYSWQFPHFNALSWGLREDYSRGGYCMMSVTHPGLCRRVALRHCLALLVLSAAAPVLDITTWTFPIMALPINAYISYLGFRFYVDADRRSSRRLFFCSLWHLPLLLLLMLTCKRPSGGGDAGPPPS
UniProt P43155: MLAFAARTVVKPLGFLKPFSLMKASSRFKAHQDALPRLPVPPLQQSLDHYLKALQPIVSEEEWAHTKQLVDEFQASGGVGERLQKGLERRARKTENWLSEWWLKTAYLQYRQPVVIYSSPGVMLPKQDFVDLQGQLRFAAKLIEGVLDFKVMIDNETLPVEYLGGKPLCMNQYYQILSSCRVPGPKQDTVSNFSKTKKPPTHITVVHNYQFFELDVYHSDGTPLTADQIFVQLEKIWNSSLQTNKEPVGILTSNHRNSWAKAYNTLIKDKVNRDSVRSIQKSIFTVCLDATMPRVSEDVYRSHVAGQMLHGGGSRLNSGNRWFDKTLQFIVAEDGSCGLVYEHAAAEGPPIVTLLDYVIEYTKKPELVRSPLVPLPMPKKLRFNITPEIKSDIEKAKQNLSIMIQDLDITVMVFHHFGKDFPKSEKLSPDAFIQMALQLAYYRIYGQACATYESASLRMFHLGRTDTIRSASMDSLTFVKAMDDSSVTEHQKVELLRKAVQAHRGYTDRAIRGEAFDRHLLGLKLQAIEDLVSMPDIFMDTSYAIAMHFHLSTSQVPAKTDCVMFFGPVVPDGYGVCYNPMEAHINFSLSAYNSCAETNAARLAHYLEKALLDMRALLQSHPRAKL
UniProt Q8NHY2, whole entry, looked up: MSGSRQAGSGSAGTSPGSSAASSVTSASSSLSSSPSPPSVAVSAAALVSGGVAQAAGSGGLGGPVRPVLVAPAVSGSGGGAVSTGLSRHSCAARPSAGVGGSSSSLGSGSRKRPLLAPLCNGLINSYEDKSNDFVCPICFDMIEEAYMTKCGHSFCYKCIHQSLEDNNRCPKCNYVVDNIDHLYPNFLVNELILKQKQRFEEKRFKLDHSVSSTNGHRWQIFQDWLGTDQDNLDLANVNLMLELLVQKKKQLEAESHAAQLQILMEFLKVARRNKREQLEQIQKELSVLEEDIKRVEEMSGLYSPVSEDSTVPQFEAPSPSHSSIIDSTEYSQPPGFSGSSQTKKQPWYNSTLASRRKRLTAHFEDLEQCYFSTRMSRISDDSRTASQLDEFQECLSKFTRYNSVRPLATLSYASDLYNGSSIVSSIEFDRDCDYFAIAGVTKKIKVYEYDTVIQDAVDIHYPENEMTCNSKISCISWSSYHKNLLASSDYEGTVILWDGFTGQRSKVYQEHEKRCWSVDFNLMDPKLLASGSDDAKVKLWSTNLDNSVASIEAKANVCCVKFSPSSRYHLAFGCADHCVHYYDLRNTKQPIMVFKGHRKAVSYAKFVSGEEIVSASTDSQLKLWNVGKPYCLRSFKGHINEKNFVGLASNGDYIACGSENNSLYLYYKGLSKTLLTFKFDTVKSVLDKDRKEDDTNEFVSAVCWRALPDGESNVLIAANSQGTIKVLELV
UniProt P02461, whole entry, looked up: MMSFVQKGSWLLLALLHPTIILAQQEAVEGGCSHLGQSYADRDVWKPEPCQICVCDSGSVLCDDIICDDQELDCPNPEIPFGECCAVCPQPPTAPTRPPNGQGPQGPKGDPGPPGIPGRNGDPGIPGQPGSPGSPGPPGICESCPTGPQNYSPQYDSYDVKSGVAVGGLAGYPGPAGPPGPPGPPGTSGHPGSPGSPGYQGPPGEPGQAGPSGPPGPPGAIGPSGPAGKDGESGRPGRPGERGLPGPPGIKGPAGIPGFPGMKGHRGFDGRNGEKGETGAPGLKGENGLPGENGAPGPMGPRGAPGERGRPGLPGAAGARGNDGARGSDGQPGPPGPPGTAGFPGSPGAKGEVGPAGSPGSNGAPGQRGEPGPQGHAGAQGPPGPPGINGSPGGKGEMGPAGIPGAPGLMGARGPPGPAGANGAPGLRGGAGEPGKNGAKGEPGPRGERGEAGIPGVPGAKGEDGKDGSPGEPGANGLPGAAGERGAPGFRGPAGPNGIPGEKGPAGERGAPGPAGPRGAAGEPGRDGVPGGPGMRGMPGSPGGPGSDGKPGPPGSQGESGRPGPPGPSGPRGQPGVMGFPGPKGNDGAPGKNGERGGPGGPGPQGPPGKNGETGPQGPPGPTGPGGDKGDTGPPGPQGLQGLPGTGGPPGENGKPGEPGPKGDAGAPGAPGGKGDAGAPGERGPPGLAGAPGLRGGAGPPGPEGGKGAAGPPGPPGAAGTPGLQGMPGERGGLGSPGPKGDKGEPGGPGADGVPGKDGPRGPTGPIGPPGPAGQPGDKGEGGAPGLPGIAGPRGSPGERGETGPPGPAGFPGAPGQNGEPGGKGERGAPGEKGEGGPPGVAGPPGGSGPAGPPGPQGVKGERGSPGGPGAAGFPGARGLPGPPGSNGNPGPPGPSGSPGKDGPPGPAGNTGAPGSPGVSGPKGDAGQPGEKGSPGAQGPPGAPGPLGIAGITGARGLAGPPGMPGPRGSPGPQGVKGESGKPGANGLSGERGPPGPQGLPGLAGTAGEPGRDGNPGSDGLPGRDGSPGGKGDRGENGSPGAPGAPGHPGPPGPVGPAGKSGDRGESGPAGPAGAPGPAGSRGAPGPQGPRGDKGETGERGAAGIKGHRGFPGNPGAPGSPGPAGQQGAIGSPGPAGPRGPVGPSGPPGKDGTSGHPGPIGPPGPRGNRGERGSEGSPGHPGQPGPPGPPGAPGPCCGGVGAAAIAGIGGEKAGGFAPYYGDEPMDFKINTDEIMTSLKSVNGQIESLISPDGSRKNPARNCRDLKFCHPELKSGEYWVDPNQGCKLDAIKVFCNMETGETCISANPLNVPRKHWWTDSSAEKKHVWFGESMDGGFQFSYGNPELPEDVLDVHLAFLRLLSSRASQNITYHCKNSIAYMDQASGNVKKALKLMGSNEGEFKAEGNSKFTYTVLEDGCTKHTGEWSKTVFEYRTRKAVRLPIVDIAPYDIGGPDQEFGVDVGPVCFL
UniProt Q9UBI1, whole entry, looked up: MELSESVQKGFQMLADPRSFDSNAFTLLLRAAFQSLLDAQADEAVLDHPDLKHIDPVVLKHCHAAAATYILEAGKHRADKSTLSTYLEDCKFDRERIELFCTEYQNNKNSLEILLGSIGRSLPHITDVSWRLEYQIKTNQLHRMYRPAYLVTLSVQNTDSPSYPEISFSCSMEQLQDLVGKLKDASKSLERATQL
UniProt P48729: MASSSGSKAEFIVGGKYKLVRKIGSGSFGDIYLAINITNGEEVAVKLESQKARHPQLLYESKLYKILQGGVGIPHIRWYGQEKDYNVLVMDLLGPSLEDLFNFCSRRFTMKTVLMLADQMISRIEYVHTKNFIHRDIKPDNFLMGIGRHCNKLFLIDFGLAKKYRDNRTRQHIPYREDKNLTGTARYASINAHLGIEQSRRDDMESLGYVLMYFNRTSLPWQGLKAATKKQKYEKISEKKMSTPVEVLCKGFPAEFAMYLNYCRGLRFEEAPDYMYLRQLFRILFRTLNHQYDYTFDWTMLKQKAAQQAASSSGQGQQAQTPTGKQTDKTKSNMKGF
UniProt P00450: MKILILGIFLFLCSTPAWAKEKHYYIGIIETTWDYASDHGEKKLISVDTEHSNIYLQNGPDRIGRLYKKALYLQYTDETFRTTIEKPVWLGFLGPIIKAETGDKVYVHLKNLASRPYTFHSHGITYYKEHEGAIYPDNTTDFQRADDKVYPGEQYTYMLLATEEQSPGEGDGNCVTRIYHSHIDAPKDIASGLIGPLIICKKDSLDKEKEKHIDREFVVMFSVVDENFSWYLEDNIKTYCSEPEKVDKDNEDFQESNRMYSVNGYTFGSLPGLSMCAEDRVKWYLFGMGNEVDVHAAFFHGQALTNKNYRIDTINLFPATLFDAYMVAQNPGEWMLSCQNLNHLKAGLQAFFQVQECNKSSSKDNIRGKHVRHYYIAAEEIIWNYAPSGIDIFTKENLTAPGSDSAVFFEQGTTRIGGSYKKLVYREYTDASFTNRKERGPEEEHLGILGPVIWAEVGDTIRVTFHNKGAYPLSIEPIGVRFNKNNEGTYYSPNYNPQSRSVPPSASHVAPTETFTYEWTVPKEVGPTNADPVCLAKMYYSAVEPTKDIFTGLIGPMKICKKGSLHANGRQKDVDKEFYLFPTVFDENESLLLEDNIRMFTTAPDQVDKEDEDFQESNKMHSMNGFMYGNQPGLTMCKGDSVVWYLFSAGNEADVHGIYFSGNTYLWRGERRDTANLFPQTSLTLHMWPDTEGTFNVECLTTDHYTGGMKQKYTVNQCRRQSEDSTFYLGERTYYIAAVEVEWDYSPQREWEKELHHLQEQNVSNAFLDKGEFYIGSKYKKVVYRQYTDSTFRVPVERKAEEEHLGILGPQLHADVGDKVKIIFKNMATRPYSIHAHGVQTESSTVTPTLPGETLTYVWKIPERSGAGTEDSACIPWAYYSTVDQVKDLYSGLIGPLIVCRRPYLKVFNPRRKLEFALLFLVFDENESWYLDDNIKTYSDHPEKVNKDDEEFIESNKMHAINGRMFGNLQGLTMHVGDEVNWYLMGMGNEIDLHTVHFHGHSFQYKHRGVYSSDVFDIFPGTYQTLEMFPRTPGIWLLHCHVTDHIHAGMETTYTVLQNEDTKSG
UniProt P78368: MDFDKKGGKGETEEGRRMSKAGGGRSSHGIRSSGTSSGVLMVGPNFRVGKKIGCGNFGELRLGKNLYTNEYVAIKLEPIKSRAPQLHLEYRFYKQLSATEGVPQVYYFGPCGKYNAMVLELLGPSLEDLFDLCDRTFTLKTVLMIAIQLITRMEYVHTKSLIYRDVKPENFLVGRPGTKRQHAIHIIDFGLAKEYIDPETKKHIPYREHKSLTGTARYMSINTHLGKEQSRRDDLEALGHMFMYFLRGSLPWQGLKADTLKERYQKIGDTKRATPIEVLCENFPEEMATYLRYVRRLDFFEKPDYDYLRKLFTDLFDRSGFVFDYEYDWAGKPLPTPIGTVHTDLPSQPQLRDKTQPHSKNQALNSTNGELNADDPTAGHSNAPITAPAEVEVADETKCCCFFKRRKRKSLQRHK
UniProt Q9BWP8: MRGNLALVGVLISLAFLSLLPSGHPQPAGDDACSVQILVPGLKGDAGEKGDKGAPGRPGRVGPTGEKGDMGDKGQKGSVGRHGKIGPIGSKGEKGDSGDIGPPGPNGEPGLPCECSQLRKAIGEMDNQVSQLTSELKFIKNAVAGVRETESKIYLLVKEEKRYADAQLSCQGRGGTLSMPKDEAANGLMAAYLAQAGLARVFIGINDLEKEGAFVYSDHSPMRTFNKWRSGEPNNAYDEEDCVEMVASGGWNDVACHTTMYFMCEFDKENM
UniProt Q9UBG3: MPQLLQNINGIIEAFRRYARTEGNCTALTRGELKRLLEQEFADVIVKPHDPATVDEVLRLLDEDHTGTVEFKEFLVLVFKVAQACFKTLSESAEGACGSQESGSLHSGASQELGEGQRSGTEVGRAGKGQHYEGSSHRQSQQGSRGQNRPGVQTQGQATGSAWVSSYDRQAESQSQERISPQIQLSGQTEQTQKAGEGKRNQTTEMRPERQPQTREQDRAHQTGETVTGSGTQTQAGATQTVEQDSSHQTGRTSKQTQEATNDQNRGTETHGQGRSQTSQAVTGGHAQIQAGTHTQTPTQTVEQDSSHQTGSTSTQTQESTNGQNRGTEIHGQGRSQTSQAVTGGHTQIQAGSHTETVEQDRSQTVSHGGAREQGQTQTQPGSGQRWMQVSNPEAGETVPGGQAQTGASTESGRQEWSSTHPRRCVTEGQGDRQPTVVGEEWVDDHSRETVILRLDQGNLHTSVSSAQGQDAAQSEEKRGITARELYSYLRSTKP
UniProt O95639, whole entry, looked up: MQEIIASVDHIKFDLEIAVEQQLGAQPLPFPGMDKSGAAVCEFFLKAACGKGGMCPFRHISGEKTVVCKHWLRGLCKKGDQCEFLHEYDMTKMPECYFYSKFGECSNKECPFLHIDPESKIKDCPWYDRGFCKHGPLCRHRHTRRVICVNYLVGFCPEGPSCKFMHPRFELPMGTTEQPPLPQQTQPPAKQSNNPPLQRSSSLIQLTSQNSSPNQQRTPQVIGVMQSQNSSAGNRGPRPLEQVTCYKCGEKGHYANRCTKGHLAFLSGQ
UniProt O14810: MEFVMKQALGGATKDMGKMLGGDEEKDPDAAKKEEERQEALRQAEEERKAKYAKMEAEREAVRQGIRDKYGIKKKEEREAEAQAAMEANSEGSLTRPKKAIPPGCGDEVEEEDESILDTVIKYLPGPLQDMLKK
UniProt P29373: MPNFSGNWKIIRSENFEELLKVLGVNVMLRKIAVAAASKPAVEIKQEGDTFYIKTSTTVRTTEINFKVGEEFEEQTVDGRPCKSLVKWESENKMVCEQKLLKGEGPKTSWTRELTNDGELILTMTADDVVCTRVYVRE

This is one part of the list.

Compound in one assay: CCCS(=O)(=O)Nc1ccc(F)c(C(=O)c2c[nH]c3ncc(Cl)cc23)c1F
The assay can be described thus: log2 fold change, soluble protein after heating vs DMSO (PISA); higher = thermal stabilisation; K562 cells, 10 uM, 30 min; active = over 0.2 and 3.5 SD of the protein, either way, in both replicates (recomputed). In short, it runs like this:
(§1)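 K562 cells at 2×10^6 cells/mL were treated for 30 min with 10 μM compound, and aliquots were heated for 3 min over 48°C-58°C before pooling. Extraction used PBS with 0.5% NP-40 at 4°C, and soluble protein was the supernatant after 21,000xg for 90 min, measured by TMTpro 16plex LC-MS/MS with channel sums equalised. Thermal stability values, relative to control samples and from duplicates, are log2 fold changes.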
Take COX10 (UniProt Q12887): the log2 fold change was inactive: -0.004.
Still for that read-out and setting: the result for CRAT (UniProt P43155) reads inactive: 0.289; that for COP1 (UniProt Q8NHY2), inactive: -0.021; that for COL3A1 (UniProt P02461), inactive: -0.009.
Same read-out and setting: to COMMD3-BMI1 (UniProt R4GMX3) belongs active: -0.426.
The same measure, in the same setting: to COMMD3 (UniProt Q9UBI1) belongs inactive: 0.067; to CSNK1A1 isoform 3 (UniProt P48729), inactive: 0.227; to CRY1 (UniProt Q16526), inactive: -0.212.
For CP (UniProt P00450), the log2 fold change is inactive: -0.044.
Still for that read-out and setting: to CPNE7 (UniProt Q9UBL6) belongs inactive: -0.037; to COL6A3 (UniProt P12111), inactive: -0.166.

Compound in another assay: CCCc1cc(C)[nH]c(=O)c1CNC(=O)c1cc(-c2ccnc(N3CCN(C)CC3)c2)cc2c1cnn2C(C)C
Described as above. The gist of the method:
as §1
On to COX10 (UniProt Q12887), for which the log2 fold change is inactive: 0.051.
As to CSNK1G2 (UniProt P78368), the log2 fold change was inactive: -0.537.
Same read-out and setting: the result for COLEC11 isoform 10 (UniProt Q9BWP8) reads inactive: -0.056; that for CRNN (UniProt Q9UBG3), inactive: 0.858; that for COMMD3 (UniProt Q9UBI1), inactive: 0.048.
On the same count and under the same terms, to CSNK1A1 isoform 3 (UniProt P48729) belongs inactive: -0.035.
The same measure, in the same setting: the result for CPSF4 (UniProt O95639) reads inactive: -0.119; that for CREB3L2 (UniProt Q70SY1), inactive: 0.154.
On to CPLX1 (UniProt O14810), for which the log2 fold change was inactive: -0.142.
With CRABP2 (UniProt P29373), the log2 fold change was inactive: 0.03.
On the same count and under the same terms, to CPNE7 (UniProt Q9UBL6) belongs inactive: -0.006.
